For data set [1] the following is noted: single i.v. dose, equimolar; sacrifice at 24 hours, 14 and 28 days; percent of administered dose.
Data set [2] is classed as binding, human. The note with it: 1 min, separate experiment.

In the case of `NCCCC(O)(P(=O)([O-])[O-])P(=O)(O)O.[Na+].[Na+]` [^3 H-ABP, 4-amino-1-hydroxybutylidene bisphosphonic acid disodium salt], the “total uptake by rat tibiae and femora” value in data set [1] is listed as “approximately 34%”. Besides, in data set [2], the “uptake of ^3 H-ABP by bone” value is listed as 77%.

Source of the values: patent publication US5409911A, “Prostaglandin analog for treating osteoporosis” (Merck & Co., Inc., priority 1992, dated 1995).
